Source: US7772383B2, “Chemical PCR: Compositions for enhancing polynucleotide amplification reactions” (The Trustees of Princeton University, priority 2002, dated 2010)
Like-named read-outs stand apart in the source and are kept apart here.

Assays:
Assay type in all cases: biochemical
[1] = system: 996 bp segment of human myeloid leukocyte c-jun cDNA; test: PCR amplification of c-jun cDNA with diol additives, standard cycling
Experimental: (§1) Amplification reactions were carried out under the following general conditions. Those skilled in the art will appreciate, however, that to the extent that the conditions (set forth in this application) required for specific experiments described in this example were inconsistent with the following general conditions, limited exceptions to the following general conditions were made The general conditions were as follows: 10 Mm Tris-HCl (Ph 8.8), 50 Mm KCl, 1.5 Mm MgCl2, 0.01% (w/v) gelatin, 0.2 Um primers, 0.06 ng/ul template, 0.2 Mm each Dntp, 0.04 U/ul Taq polymerase. The templates used were bovine brain N-WASP cDNA (1518 bp), a 996 bp segment of human myeloid leukocyte c-jun cDNA, a 511 bp segment of human prostate-specific membrane antigen (PSM) cDNA, and bovine brain glycolipid transfer protein (GTP) cDNA (660 bp). cDNA synthesis was carried out using the FIRST-STRAND® RT-PCR kit from Stratagene on the respective mRNAs purchased from Clontech. All amplification reactions for gene were carried out using a single master batch of cDNA. Taq polymerase and dNTPs were obtained from Stratagene. Primers were obtained from Genosys. Primer melting temperatures (Tms) were calculated using the Genosys oligo calculator program. The sequences of the primers were as follows.
(§2) Polymerase chain reactions for the N-WASP gene were conducted on a ROBOCYCLER® Gradient 40 thermal cycler from Stratagene using 100 ul solutions in 600 ul thin-walled tubes. For expediency, amplification of c-jun, PSM and GTP was carried out in a ROBOCYCLER® Gradient 96 thermal cycler from Stratagene using 50 ul solutions in 200 ul thin-walled tubes. Prior to Taq polymerase addition, a hotstart protocol was carried out that consisted of an initial cycle of 95° C. for 5 minutes (11) to ensure complete first-strand separation, followed by a cycle of 54° C. for 5 minutes. Amplifications were run for 30 cycles. […] Extension was done at 72° C. for periods depending on target length: 2 minutes for N-WASP, 1.5 minutes for c-jun and GTP, and 1 minute for PSM. Annealings were carried out either at fixed concentrations of additives using temperature gradients of 38-56° C. for N-WASP and 44-58° C. for the other targets, or at varying concentrations of additives using fixed temperatures of 41° C. for N-WASP, 50° C. for c-jun and PSM, and 54° C. for GTP.
(§3) Amplification products were analyzed by agarose gel electrophoresis on 0.8% agarose gels in which 20 ul reaction products were loaded with 4 ul loading buffer. Gels were stained with ethidium bromide, visualized on a UV transilluminator (Fisher), and documented by photography. Densitometric quantitation of amplification products was carried out using IMAGE SCANNER® and IMAGE MASTER® software from Amersham Pharmacia. Background correction was done using the software's rolling disc method.
(§4) With PSM, 1,2-propanediol, 1,2-butanediol, 1,3-butanediol, 1,4-butanediol and glycerol were tested; with c-jun, ethylene glycol and 1,3-propanediol were also tested in addition to these compounds. […] The following additive concentrations were tested using these annealing temperatures: 1,2-propanediol—0.5, 0.8, 1.1, 1.4, 1.7 and 2.0M; 1,2-butanediol—0.1, 0.3, 0.5, 0.6, 0.7 and 0.8M; 1,3-butanediol—0.1, 0.3, 0.5, 0.6, 0.9, 1.1, 1.2M; 1,4-butanediol—0.1 to 1.1M in 0.2M intervals; 1,5-pentanediol—0.1-0.6M in 0.1M intervals; glycerol—0.5 to 1.9M in 0.2M intervals, and 2.2M.

[2] = system: 511 bp segment of human prostate-specific membrane antigen (PSM) cDNA; test: PCR amplification of PSM cDNA with diol additives, standard cycling; details: annealing temperature gradient studies
Experimental: as §1, §2, §3, §4

[3] = system: bovine brain glycolipid transfer protein (GTP) cDNA (660 bp); test: PCR amplification of GTP cDNA with diol additives, standard cycling
Experimental: as §1, §2, §3
Investigations into the PCR enhancing capabilities of diol cosolvents were carried out using GTP as the primary template. […] The standard protocol for annealing temperature and concentration gradient screening was again followed. […] These cosolvents were thus omitted from further studies. The optimal annealing temperatures for the remaining compounds were: ethylene glycol, 1,2-propanediol, 1,3-propanediol and cis-1,2-cyclopentanediol—58° C.; 1,2-butanediol—54° C.; 1,3-butanediol and 1,4-butanediol—[…]; 2,4-pentanediol, 1,5-pentanediol, 1,6-hexanediol and MPD—56° C.

[4] = c-jun, annealing temperature gradient studies
[5] = GTP, annealing temperature gradients, 95° C. denaturing temperature

With `CCC(O)CO` (stereo not shown) [1,2-Butanediol] the optimal annealing temperature [1, 4] was 50 °C, the optimal annealing temperature [2] was 52 °C and the optimal annealing temperature [3, 5] was 54 °C.
For `CC(O)CO` (stereo not shown) [1,2-Propanediol], the optimal annealing temperature [1, 4] was 50 °C, the optimal annealing temperature [2] was 52 °C and the optimal annealing temperature [3, 5] was 58 °C.
`CC(O)CCO` (stereo not shown) [1,3-Butanediol] was tested, and the optimal annealing temperature [1, 4] was 50 °C, the optimal annealing temperature [2] was 50 °C and the optimal annealing temperature [3, 5] was 60 °C.
`OCCCO` [1,3-Propanediol] gave an optimal annealing temperature [1, 4] of 50 °C and an optimal annealing temperature [3, 5] of 58 °C.
For `OCCCCO` [1,4-Butanediol], the optimal annealing temperature [1] was 50 °C, the optimal annealing temperature [2] was 54 °C and the optimal annealing temperature [3] was 60 °C.
Compound `OCCCCCO` [1,5-Pentanediol] has an optimal annealing temperature [1, 4] of 54 °C, an optimal annealing temperature [2] of 52 °C and an optimal annealing temperature [3, 5] of 56 °C.
`OCCCCCCO` [1,6-Hexanediol] gave an optimal annealing temperature [3, 5] of 56 °C.
`CC(O)CC(C)O` (stereo not shown) [2,4-Pentanediol] gave an optimal annealing temperature [3, 5] of 56 °C.
With `CC(O)CC(C)(C)O` (stereo not shown) [2-Methyl-2,4-Pentanediol] the optimal annealing temperature [3, 5] was 56 °C.
With `OCCO` [Ethylene glycol] the optimal annealing temperature [1] was 52 °C and the optimal annealing temperature [3] was 58 °C.
`OCC(O)CO` [Glycerol, reference compound] was tested, and the optimal annealing temperature [1, 4] was 58 °C and the optimal annealing temperature [2] was 52 °C.
With `O[C@@H]1CCC[C@@H]1O` [cis-1,2-Cyclopentanediol] the optimal annealing temperature [3, 5] was 58 °C.
